From PMC10564737, “Structure-based design of a phosphotyrosine-masked covalent ligand targeting the E3 ligase SOCS2” (Nature Communications, 2023)
Several values for one entry are separate records, joined by “and”; a condition that tells them apart may be missing. Equal values may be shown once. Further values from the same series stand in other lists.

The chains behind the UniProt entries cited, without tags or fusion partners. Residues count along the entry.
UniProt O14508, 32-198: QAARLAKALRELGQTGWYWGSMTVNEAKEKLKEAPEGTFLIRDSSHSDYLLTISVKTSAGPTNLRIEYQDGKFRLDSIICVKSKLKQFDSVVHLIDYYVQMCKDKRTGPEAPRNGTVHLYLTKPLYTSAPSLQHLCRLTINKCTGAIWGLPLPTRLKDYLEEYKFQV

Molecular target: T1, SBC2 (Homo sapiens, UniProt O14508)
T1 construct: SOCS2 (amino acids 32–198); His6 (N, cleaved yes); made in house; host or cells: E. coli BL21(DE3)
Assay: Covalent fluorescence polarization (FP) probe displacement assay
Type: binding
Text: With the specific covalent modification of Cys111 established, we decided to fully characterize MN551 as a covalent SOCS2 inhibitor. […] (Fig. 2g, h, Supplementary Fig. 9). Due to the covalent nature of the competing inhibitor, a time-dependent reduction in the fraction of protein-bound probe is observed. […] This value illustrates reasonable specificity for a covalent inhibitor, with nonetheless scope for future optimization. In addition to characterizing the kinetic covalency parameters, we have also assessed the stability of the MN551 by monitoring its reactivity (half-life >70 min) with reduced glutathione (GSH) (Supplementary Fig. 10)[35].
To monitor the SBC2-ligand binding kinetics we designed a fluorescein-labeled small-molecule probe - compound 26. The fluorescence polarization (anisotropy) of a threefold serial dilution of 50 µM SBC2 in 10 nM of the probe in 100 mM HEPES pH 7.5, 50 mM NaCl, 0.5 mM TCEP, 2% DMSO was measured to determine the KL (Supplementary Fig. 9A) (BMG Labtech PHERAstar – firmware v1.33). Protein titration and the curves were fitted using GraphPad Prism 9, using one-site fitting models to determine the probe binding constant, KL. Samples were run in triplicate in 384 well plates, using a total volume per well of 16 μL. The bound fraction of the probe is measure using the equation:1 Fb=Af−A/Af−Ab Where,
A time-dependent reduction in probe anisotropy were measured for a 2-fold serial dilution of […] compound MN551 in 10 nM probe +300 μM SBC2. To determine the initial reversible binding affinity, the initial bound fraction of the probe at time = 0, Fbo (the y-intercept in Fb v/s Time plot, Supplementary Fig. 9B) was plotted against MN551 concentration, and the obtained IC50 is then converted to Ki (Supplementary Fig. 9C)[17]. The slope from Fb versus time graph when divided by Fbo gives rate of covalency, kobs. A plot of kobs v/s MN551 concentration using Michaelis–Menten model of GraphPad Prism 9, provides the parameters kinact (maximum potential rate of inactivation) and KI (concentration of MN551 at which kobs = kinact/2) (Supplementary Fig. 9D, E).
The observed first-order rate constant, kobs is related to KI and kinact by the equation:2 kobs=kinactI/KI+I
At [I]«[KI] the above equation is converted to3 […]
The slope from the plot of kobs against concentration of MN551 gives us the covalent efficiency parameter kinact/KI (Supp Fig. 9F)[30],[33].

[1] = MN551 1562.5 nM; Cycle 13 (60 min); n=1
[2] = MN551 1562.5 nM; Cycle 14 (65 min); n=1
[3] = MN551 1562.5 nM; Cycle 15 (70 min); n=1
[4] = MN551 1562.5 nM; Cycle 16 (75 min); n=1
[5] = MN551 3125 nM, Cycle 8 (35 min)
[6] = MN551 3125 nM, Cycle 9 (40 min)
[7] = MN551 3125 nM, Cycle 10 (45 min)
[8] = MN551 3125 nM; Cycle 7 (30 min)
[9] = MN551 3125 nM; Cycle 8 (35 min)
[10] = MN551 3125 nM; Cycle 9 (40 min)
[11] = MN551 3125 nM; Cycle 10 (45 min)
[12] = MN551 3125 nM; Cycle 11 (50 min)
[13] = MN551 3125 nM; Cycle 12 (55 min); n=1
[14] = MN551 3125 nM; Cycle 13 (60 min); n=1
[15] = MN551 3125 nM; Cycle 14 (65 min); n=1
[16] = MN551 3125 nM; Cycle 15 (70 min); n=1
[17] = MN551 3125 nM; Cycle 16 (75 min); n=1
[18] = MN551 3125 nM; Cycle 17 (80 min); n=1
[19] = MN551 6250 nM, Cycle 8 (35 min)
[20] = MN551 6250 nM, Cycle 9 (40 min)
[21] = MN551 6250 nM, Cycle 10 (45 min)
[22] = MN551 6250 nM; Cycle 7 (30 min)
[23] = MN551 6250 nM; Cycle 8 (35 min)
[24] = MN551 6250 nM; Cycle 9 (40 min)
[25] = MN551 6250 nM; Cycle 10 (45 min)

O=C(CCl)Nc1cccc(CNC(=O)[C@H](Cc2ccc(OP(=O)(O)O)cc2)NC(=O)Cc2ccc(F)cc2)c1 [MN551]
Anisotropy [1]: 229.8 and 234.4 and 235.2
Anisotropy based on Raw Data (485) [1]: 235.6 and 238.5 and 233.4
Anisotropy [2]: 227.1 and 232.1 and 231
Anisotropy based on Raw Data (485) [2]: 234.5 and 232.3 and 232.6
Anisotropy [3]: 224.9 and 229.8 and 228.8
Anisotropy based on Raw Data (485) [3]: 229 and 231.4 and 227.1
Anisotropy [4]: 221.4 and 228.3 and 226.7
Anisotropy based on Raw Data (485) [4]: 229.6 and 230.2 and 223.6
Anisotropy data 485,520,520 (MN551 1562.5 nM; Cycle 19 (90 min); n=1): 219.9 and 220.1 and 217.3
Anisotropy data 485,520,520 (MN551 1562.5 nM; Cycle 20 (95 min); n=1): 215.4 and 215.6
Fb (MN551 3125 nM, Cycle 7 (30 min)): 0.5021 and 0.5574 and 0.5274
Anisotropy based on Raw Data (485) [5]: 230.4 and 225
Fb [5]: 0.4484 and 0.5236 and 0.4774
Anisotropy based on Raw Data (485) [6]: 226.8 and 228.4 and 222.7
Fb [6]: 0.4219 and 0.5154 and 0.4585
Anisotropy based on Raw Data (485) [7]: 225.8 and 224.5 and 221.4
Fb [7]: 0.4179 and 0.4825 and 0.4723
Anisotropy (MN551 3125 nM, Cycle 13 (60 min), n=1): 216 and 213.7 and 213.1
Anisotropy (MN551 3125 nM, Cycle 14 (65 min), n=1): 213 and 211.5 and 209.7
Anisotropy (MN551 3125 nM, Cycle 15 (70 min), n=1): 213.3 and 209.1 and 208.1
Anisotropy (MN551 3125 nM, Cycle 16 (75 min), n=1): 208.5 and 206.2 and 205.8
Anisotropy (MN551 3125 nM, Cycle 18 (85 min), n=1): 203.4 and 202.2 and 200.4
Fb, fraction bound (MN551 3125 nM; Cycle 4 (15 min)): 0.6147 and 0.6141 and 0.596
Fb, fraction bound (MN551 3125 nM; Cycle 5 (20 min)): 0.5816 and 0.6069 and 0.5798
Fb, fraction bound (MN551 3125 nM; Cycle 6 (25 min)): 0.5809 and 0.577 and 0.5744
Anisotropy data 485,520,520 [8]: 230 and 231.4 and 233.7
Fb [8]: 0.552 and 0.5546 and 0.5812
Fb, fraction bound [8]: 0.5447 and 0.55 and 0.5399
Anisotropy [9]: 230.6 and 228.5 and 227.3
Anisotropy data 485,520,520 [9]: 227.5 and 229 and 230.8
Fb [9]: 0.518 and 0.5256 and 0.5538 and 0.5298 and 0.5153 and 0.5089
Anisotropy [10]: 227.6 and 227.3 and 223.5
Anisotropy data 485,520,520 [10]: 224.7 and 225.6 and 228.2
Fb [10]: 0.5025 and 0.5082 and 0.5371 and 0.4972 and 0.5123 and 0.484
Anisotropy [11]: 224.7 and 223.9 and 219.5
Anisotropy data 485,520,520 [11]: 221.1 and 221.8 and 224.3
Fb [11]: 0.4762 and 0.4792 and 0.5005 and 0.4717 and 0.4943 and 0.4549
Anisotropy [12]: 222.7 and 217.5 and 217.2
Anisotropy based on Raw Data (485) [12]: 220.2 and 222.1 and 218.3
Anisotropy (MN551 3125 nM; Cycle 11 (50 min); n=1): 217.2 and 219.7 and 223.2
Anisotropy [13]: 215.6 and 217.4 and 218.7
Anisotropy based on Raw Data (485) [13]: 218 and 219.1 and 214.5
Anisotropy [14]: 213.4 and 214.8 and 217.7
Anisotropy based on Raw Data (485) [14]: 215.3 and 215.2 and 214.7
Anisotropy [15]: 209.5 and 212.1 and 214
Anisotropy based on Raw Data (485) [15]: 212.6 and 214.6 and 210.4
Anisotropy [16]: 209.2 and 209.9 and 211.1
Anisotropy based on Raw Data (485) [16]: 211.1 and 211.4 and 210.8
Anisotropy [17]: 206.3 and 204.2 and 209
Anisotropy based on Raw Data (485) [17]: 209.6 and 208 and 203.7
Anisotropy [18]: 205.7 and 203.5 and 202.2
Anisotropy based on Raw Data (485) [18]: 204.8 and 205.7 and 202.1
Anisotropy data 485,520,520 (MN551 3125 nM; Cycle 19 (90 min); n=1): 201.9 and 201.4 and 198.7
Anisotropy data 485,520,520 (MN551 3125 nM; Cycle 20 (95 min); n=1): 199.4 and 197.1 and 199.1
Fb (MN551 6250 nM, Cycle 7 (30 min)): 0.2848 and 0.3538 and 0.3243
Anisotropy based on Raw Data (485) [19]: 206.7 and 206 and 207.2
Fb [19]: 0.2464 and 0.3067 and 0.3168
Anisotropy based on Raw Data (485) [20]: 206.2 and 202.8 and 203.6
Fb [20]: 0.2508 and 0.2839 and 0.2823
Anisotropy based on Raw Data (485) [21]: 202.2 and 201.5 and 200.9
Fb [21]: 0.2241 and 0.2807 and 0.2865
Anisotropy (MN551 6250 nM, Cycle 13 (60 min), n=1): 193.2 and 192.9 and 193.1
Anisotropy (MN551 6250 nM, Cycle 14 (65 min), n=1): 191.5 and 189.9 and 189.1
Anisotropy (MN551 6250 nM, Cycle 15 (70 min), n=1): 190.7 and 187.5 and 188.4
Anisotropy (MN551 6250 nM, Cycle 16 (75 min), n=1): 186.9 and 186.5 and 187.3
Anisotropy (MN551 6250 nM, Cycle 18 (85 min), n=1): 184.5 and 183.4 and 184.3
Fb, fraction bound (MN551 6250 nM; Cycle 4 (15 min)): 0.3977 and 0.4042 and 0.4004
Fb, fraction bound (MN551 6250 nM; Cycle 5 (20 min)): 0.3488 and 0.3735 and 0.3661
Fb, fraction bound (MN551 6250 nM; Cycle 6 (25 min)): 0.3491 and 0.3375 and 0.3388
Anisotropy data 485,520,520 [22]: 215.4 and 210.6 and 212.9
Fb [22]: 0.4073 and 0.3636 and 0.3814
Fb, fraction bound [22]: 0.3194 and 0.3227 and 0.3211
Anisotropy [23]: 208 and 204.6 and 206.6
Anisotropy data 485,520,520 [23]: 210.3 and 208.4 and 210.7
Fb [23]: 0.3508 and 0.3373 and 0.3642 and 0.3125 and 0.293 and 0.3146
Anisotropy [24]: 202.6 and 200.2 and 201.9
Anisotropy data 485,520,520 [24]: 206.4 and 206 and 206.9
Fb [24]: 0.32 and 0.3294 and 0.3371 and 0.2613 and 0.2561 and 0.281
Anisotropy [25]: 199.5 and 198.5 and 201.6
Anisotropy data 485,520,520 [25]: 206.3 and 203.4 and 204.6
